Results are given in words; binding and its absence hold for the method and conditions named. In cells and extracts the contact can be indirect. Some binding calls cover weakened binding; strength is not graded here. Tags and fused reporters may be left off the sequences shown.
Target: T1, GST-Amphiphysin II SH3 domain (UniProt O00499)
T1 sequence: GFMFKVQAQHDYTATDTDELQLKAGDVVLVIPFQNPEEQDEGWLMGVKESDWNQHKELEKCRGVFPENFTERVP
Test: pull-down; GST-Amph II SH3 on beads (approximately 20 μl) in about 3 mg H1299 post-nuclear fraction, 1 h rotation; 50 mM Tris, 150 mM NaCl, 0.2% Triton X-100; washed twice; western blot; only the target purified

binding: binds
B1: dynamin-1, endogenous in H1299 cells (protein, UniProt Q05193 1-864)
chain: MGNRGMEDLIPLVNRLQDAFSAIGQNADLDLPQIAVVGGQSAGKSSVLENFVGRDFLPRGSGIVTRRPLVLQLVNATTEYAEFLHCKGKKFTDFEEVRLEIEAETDRVTGTNKGISPVPINLRVYSPHVLNLTLVDLPGMTKVPVGDQPPDIEFQIRDMLMQFVTKENCLILAVSPANSDLANSDALKVAKEVDPQGQRTIGVITKLDLMDEGTDARDVLENKLLPLRRGYIGVVNRSQKDIDGKKDITAALAAERKFFLSHPSYRHLADRMGTPYLQKVLNQQLTNHIRDTLPGLRNKLQSQLLSIEKEVEEYKNFRPDDPARKTKALLQMVQQFAVDFEKRIEGSGDQIDTYELSGGARINRIFHERFPFELVKMEFDEKELRREISYAIKNIHGIRTGLFTPDMAFETIVKKQVKKIREPCLKCVDMVISELISTVRQCTKKLQQYPRLREEMERIVTTHIREREGRTKEQVMLLIDIELAYMNTNHEDFIGFANAQQRSNQMNKKKTSGNQDEILVIRKGWLTINNIGIMKGGSKEYWFVLTAENLSWYKDDEEKEKKYMLSVDNLKLRDVEKGFMSSKHIFALFNTEQRNVYKDYRQLELACETQEEVDSWKASFLRAGVYPERVGDKEKASETEENGSDSFMHSMDPQLERQVETIRNLVDSYMAIVNKTVRDLMPKTIMHLMINNTKEFIFSELLANLYSCGDQNTLMEESAEQAQRRDEMLRMYHALKEALSIIGDINTTTVSTPMPPPVDDSWLQVQSVPAGRRSPTSSPTPQRRAPAVPPARPGSRGPAPGPPPAGSALGGAPPVPSRPGASPDPFGPPPQVPSRPNRAPPGVPSRSGQASPSRPESPRPPFDL

Source: publication PMC5927468
